Source: the supplement of paper PMC12889115
Some of the results follow. These are raw signals, not scaled to a control.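 First-pass screen: polymyxin B was added at a level that permeabilizes the Salmonella outer membrane while sparing the inner membrane. DMSO wells, with and without polymyxin B, defined maximum growth. Because plates differed from one another, each plate's data were ranked separately and the compounds with the lowest OD600 were carried forward as hits.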

System: Salmonella enterica serovar Typhimurium SL1344
Test: bacterial growth OD600 after 18 h with compound and polymyxin B; higher = more bacterial growth (less inhibition)
Conditions: 50 µM, Mueller-Hinton broth

Structure (SMILES) | bacterial growth OD600 (polymyxin B 1 µg/mL) | bacterial growth OD600 (polymyxin B 0.75 µg/mL)
C[C@@H]1CN(C2CCN(C(=O)c3cc(COc4ccccc4)[nH]n3)CC2)C[C@H](C)O1 | 0.854 | –
CN(Cc1ccccc1)c1ncccc1CNC(=O)Cn1cccn1 | – | 0.704
O=C(NCc1nc(NCCCc2ccccc2)c2ccccc2n1)c1ccccc1-c1ncc[nH]1 | – | 0.771
C=CCOc1ccccc1CN1CCCC(CCOC)(C(=O)OCC)C1 (stereo not given) | 1.24 | –
NC(=O)CCNC(=O)C1CCCN(c2nc(-c3ccccc3)nc3c2CCC3)C1 (stereo not given) | 0.996 | –
Cc1[nH]c2c(CNCc3cnn(C)c3C)cc(F)cc2c1C | – | 0.883
COc1cc(CN2CCc3c(C(=O)N4CCc5ccccc5C4)c(OC)cc(=O)n3CC2)ccc1F | – | 0.818
COc1ccc(CCC(=O)NCCN2Cc3cc(C)ccc3OC(C)C2)cc1OC (stereo not given) | – | 0.852
FC(F)(F)CCCN1CCC(C2CCN(Cc3cccnc3)CC2)C1 (stereo not given) | – | 0.869
CCCCNC1CCN(c2cccc(NC(=O)c3cccc(C(F)(F)F)c3)c2)CC1 | – | 0.74
OC(Cc1ccccc1)c1ccc2c(c1)CN(Cc1c[nH]nc1-c1ccc(F)cc1)CCO2 (stereo not given) | – | 0.748
O=C1CCC(C(=O)N2CCCCCCC2)CN1CCc1ccccc1 (stereo not given) | 0.854 | –
Cn1ccnc1CN1CCCC(CCC(=O)Nc2ccccc2F)C1 (stereo not given) | 0.938 | –
CSCc1ccc(C(=O)N2CCC(CCC(=O)NCC3CCCO3)CC2)o1 (stereo not given) | 0.876 | –
CC(=O)c1ccc(F)c(-c2cc(C)cc3c2OC(CNC(=O)C2=CCCC2)C3)c1 (stereo not given) | – | 0.007
COc1cccc(CNC(=O)C2(N3C[C@@H](C)O[C@@H](C)C3)Cc3ccccc3C2)c1 | – | 0.001
O=C(Nc1cccc(-c2cscn2)c1)C1CCN(Cc2ccccc2)CC1 | – | 0.657
Cc1ccc(NC2CCCN(C(=O)c3ccoc3)C2)cc1C (stereo not given) | 0.842 | –
CCN1CCN(C2(C(=O)NCCOc3cccnc3)Cc3ccccc3C2)CC1 | – | 0.839
CC(C)CCCC1CN(C(=O)CCn2cncn2)CCO1 (stereo not given) | 0.931 | –

Sorted by SMILES length (low to high): 3 of the compounds above
Structure (SMILES) | bacterial growth OD600 (polymyxin B 1 µg/mL) | bacterial growth OD600 (polymyxin B 0.75 µg/mL)
O=C1CCC(C(=O)N2CCCCCCC2)CN1CCc1ccccc1 (stereo not given) | 0.854 | –
CSCc1ccc(C(=O)N2CCC(CCC(=O)NCC3CCCO3)CC2)o1 (stereo not given) | 0.876 | –
CC(=O)c1ccc(F)c(-c2cc(C)cc3c2OC(CNC(=O)C2=CCCC2)C3)c1 (stereo not given) | – | 0.007
